From patent US20250115663A1
Results are given in words; binding and its absence hold for the method and conditions named. Some binding calls cover weakened binding; strength is not graded here. Each block holds one binder with its values, some of them ahead of it.

Protein sequences, listed by entry. Tags and fused reporters are not part of them. Lines headed by an entry give the natural chain unless they say otherwise; changes in a name come on top. Chains listed by the source or under a name are the forms on record and can include a tag or linker.
cynomolgus macaque CD40 on PBMC (G7PG38, form named): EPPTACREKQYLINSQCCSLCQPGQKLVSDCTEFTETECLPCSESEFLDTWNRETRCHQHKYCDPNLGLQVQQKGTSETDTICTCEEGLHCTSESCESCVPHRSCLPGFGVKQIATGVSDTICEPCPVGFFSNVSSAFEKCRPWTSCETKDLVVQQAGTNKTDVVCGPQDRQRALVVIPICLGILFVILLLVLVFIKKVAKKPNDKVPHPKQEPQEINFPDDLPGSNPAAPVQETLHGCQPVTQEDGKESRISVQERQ

Columns and labels:
[1] = target: cynomolgus macaque CD40 on PBMC (cynomolgus macaque) (UniProt G7PG38); experiment: flow cytometry on cynomolgus macaque PBMC (CD20+ B cells)
[2] = target: cynomolgus macaque CD40 on PBMC (cynomolgus macaque) (UniProt G7PG38); experiment: flow cytometry on cynomolgus macaque PBMC, CD20+ B cells, detection anti-human IgG Fc-PE

binding [1]: binds | binding [2]: binds
B1: anti-CD40 human monoclonal antibody 3B6 (antibody, human IgG2, V domains shown)
VH: EVQLLESGGGLVQPGGSLRLSCAASGFTFSSYAMSWVRQAPGKGLEWVSGITGTGGSTYYADSVKGRFTISRDNSKNTLYVQMNSLRAEDTAVYYCAKRAGGSFYYYYGMDVWGQGTTVTVSS
VL: DIVMTQSPLSLPVTPGEPASISCRSSQSLLHSTGYNYLDWYLQKPGQSPQLLIYLGSNRASGVPDRFNGSGSGTDFTLKISRVEAEDFGVYYCMQALQTPWTFGHGTKVEIK

binding [1]: binds | binding [2]: binds
B2: anti-CD40 human monoclonal antibody 3C3 (antibody, human IgG2, kappa, V domains shown)
VH: QVQLVESGGGVVQPGRSLRLSCAGSGFIFSRYGMYWVRQAPGKGLEWVAVIWYDGSYKYYADSVKGRFTISRDNSKNTLYLQMNSLRAEDTAVYYCARESPWYYFDYWGQGTLVTVSS
VL: DIQMTQSPSSLSASVGDRVTITCRASQGISNYLAWYQQKPGKVPKLLIYAASTLQSGVPSRFSGSGSGTDFTLTISSLQPEDVATYYCQKYKSAPFTFGPGTKVDIKR

binding [1]: binds | binding [2]: binds
B3: anti-CD40 human monoclonal antibody 6H6 (antibody, human IgG2, V domains shown)
VH: QVQLVESGGGVVQPGRSLRFSCAASGFTLSSYGMHWVRQAPGKGLEWVAVIWDDGSNKYYADSVKGRFTISRDNSKNTLYLQMNSLRAEDTAVYYCARAGGSGRYYNYFDYWGQGTLVTVSS
VL: EIVMTQSPATLSVSPGERATLSCRASQSVRSNLAWYQQKPGQAPRLLIYGASTRATGIPARFSGSGSGTDFTLTISSLQSEDFAVYYCQQHNNWLTFGGGTKVEIK
